Measured values taken from PMC11074156.
No constants are given. Whether binding was seen depends on the method and setting. In cells and extracts the contact can be indirect. Some binding calls cover weakened binding; strength is not graded here.

Sequences of proteins named here, by UniProt entry; tags and fusion partners are left off. A change or cut given only in a name is not applied to a line headed by its entry. A line that says so, or that is headed by a name, gives the form on record, which may keep a tag or linker. Residues count along the entry.
UniProt P11021: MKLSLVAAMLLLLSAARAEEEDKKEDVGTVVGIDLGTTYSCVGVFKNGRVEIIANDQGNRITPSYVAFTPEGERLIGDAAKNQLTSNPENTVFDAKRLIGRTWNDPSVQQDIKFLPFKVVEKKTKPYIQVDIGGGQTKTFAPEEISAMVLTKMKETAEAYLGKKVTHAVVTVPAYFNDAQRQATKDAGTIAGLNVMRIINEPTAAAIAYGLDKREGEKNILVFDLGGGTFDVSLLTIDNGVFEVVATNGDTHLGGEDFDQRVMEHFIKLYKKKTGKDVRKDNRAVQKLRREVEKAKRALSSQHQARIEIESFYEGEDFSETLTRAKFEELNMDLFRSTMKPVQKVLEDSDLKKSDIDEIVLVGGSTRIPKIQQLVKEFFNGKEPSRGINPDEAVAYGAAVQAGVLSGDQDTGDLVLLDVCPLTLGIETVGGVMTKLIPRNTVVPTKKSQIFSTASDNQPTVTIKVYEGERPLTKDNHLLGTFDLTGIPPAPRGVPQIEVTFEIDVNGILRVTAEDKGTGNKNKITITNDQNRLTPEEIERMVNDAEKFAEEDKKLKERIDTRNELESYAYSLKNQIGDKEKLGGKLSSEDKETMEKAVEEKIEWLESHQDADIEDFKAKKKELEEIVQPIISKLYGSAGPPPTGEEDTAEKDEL
EGFP-full length GRP78 (wild type): residues 19-654 of P11021
EGFP-NBD (GRP78 nucleotide binding domain with the hydrophobic linker): residues 19-419 of P11021
EGFP-SBD (GRP78 substrate binding domain): residues 420-654 of P11021
EGFP-full length GRP78 H477E (P11021, form named): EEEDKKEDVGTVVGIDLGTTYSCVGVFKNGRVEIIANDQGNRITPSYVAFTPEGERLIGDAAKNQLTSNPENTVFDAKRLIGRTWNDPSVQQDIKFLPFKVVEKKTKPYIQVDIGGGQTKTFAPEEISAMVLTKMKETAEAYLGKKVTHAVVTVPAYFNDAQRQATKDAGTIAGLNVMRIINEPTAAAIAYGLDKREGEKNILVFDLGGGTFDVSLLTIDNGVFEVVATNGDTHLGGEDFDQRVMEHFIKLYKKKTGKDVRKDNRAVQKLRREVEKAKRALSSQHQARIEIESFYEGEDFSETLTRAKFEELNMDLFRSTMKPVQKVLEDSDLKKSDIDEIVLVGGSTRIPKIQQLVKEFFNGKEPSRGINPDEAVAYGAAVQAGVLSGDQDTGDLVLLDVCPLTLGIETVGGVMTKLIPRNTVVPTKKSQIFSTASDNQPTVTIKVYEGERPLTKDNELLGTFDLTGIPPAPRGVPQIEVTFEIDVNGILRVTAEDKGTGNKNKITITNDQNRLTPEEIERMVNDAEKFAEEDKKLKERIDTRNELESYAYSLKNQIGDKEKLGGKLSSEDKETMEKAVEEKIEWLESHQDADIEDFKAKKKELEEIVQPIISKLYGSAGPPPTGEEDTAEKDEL
EGFP-full length GRP78 K621A (P11021, form named): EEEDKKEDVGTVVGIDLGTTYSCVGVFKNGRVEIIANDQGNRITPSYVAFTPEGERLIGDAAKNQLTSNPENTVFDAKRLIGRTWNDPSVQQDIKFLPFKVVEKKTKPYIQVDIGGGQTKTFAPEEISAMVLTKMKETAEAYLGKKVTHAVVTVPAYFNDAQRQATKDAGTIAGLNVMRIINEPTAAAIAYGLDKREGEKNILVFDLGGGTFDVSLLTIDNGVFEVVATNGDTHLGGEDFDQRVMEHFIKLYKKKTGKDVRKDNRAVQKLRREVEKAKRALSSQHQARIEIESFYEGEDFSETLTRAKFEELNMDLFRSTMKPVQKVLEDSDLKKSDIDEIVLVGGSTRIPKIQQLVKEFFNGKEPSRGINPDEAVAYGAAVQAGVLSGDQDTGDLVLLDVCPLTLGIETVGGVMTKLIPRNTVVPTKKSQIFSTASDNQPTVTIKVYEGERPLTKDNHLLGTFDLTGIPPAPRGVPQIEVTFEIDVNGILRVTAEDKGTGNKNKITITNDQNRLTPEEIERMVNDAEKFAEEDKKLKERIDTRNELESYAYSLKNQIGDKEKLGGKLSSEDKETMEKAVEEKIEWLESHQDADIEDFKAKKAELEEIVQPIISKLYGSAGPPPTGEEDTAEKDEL
EGFP-full length GRP78 V429Q (P11021, form named): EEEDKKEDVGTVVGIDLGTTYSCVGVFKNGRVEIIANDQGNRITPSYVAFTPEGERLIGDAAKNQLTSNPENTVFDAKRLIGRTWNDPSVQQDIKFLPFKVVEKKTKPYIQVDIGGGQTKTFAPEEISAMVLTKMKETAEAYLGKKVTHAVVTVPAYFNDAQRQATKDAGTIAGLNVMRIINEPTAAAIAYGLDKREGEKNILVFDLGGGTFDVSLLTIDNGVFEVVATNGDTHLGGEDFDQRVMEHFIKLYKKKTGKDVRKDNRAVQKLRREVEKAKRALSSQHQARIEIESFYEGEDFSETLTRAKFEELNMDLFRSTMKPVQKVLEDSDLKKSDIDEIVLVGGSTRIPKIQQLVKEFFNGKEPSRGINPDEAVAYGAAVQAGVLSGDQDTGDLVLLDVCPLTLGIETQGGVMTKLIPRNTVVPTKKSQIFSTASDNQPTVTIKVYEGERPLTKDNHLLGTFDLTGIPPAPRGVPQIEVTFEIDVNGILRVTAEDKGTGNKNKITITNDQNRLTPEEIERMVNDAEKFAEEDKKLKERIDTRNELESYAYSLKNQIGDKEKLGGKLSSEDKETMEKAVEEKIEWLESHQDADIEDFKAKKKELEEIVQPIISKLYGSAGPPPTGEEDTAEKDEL
EGFP-full length GRP78 K585A (P11021, form named): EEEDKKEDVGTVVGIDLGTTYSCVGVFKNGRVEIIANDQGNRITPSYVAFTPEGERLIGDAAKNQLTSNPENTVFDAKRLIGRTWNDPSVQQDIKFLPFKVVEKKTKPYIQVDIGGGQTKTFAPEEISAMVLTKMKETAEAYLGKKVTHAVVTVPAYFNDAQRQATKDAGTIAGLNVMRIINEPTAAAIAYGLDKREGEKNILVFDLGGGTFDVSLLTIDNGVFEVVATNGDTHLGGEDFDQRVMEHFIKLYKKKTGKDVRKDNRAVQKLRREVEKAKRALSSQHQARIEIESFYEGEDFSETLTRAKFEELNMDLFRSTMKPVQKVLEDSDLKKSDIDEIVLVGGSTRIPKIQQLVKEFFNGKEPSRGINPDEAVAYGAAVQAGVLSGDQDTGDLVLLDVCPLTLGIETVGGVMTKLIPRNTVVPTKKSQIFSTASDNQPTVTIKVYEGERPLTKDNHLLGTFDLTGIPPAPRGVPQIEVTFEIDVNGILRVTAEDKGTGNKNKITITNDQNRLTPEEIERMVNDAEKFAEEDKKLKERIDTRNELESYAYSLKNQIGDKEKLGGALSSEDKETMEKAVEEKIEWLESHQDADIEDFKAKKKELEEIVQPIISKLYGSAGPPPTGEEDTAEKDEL
EGFP-full length GRP78 R470E (P11021, form named): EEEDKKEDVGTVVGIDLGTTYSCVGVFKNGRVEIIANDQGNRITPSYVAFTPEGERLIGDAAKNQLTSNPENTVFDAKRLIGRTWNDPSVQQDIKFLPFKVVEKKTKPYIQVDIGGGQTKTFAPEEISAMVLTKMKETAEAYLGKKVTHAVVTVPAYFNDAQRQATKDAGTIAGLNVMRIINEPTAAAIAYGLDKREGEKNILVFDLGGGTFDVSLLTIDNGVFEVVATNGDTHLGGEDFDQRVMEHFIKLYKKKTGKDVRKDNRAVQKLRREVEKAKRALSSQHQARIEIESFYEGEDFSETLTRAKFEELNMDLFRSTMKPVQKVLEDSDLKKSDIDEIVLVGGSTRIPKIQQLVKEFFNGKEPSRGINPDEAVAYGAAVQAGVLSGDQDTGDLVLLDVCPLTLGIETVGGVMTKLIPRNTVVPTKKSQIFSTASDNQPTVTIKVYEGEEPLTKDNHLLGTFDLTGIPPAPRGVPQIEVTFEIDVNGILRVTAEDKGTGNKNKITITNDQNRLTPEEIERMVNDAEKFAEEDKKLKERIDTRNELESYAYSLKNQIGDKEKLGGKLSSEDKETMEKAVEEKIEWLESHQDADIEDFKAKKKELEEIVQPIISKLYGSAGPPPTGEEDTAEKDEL
EGFP-full length GRP78 R492E (P11021, form named): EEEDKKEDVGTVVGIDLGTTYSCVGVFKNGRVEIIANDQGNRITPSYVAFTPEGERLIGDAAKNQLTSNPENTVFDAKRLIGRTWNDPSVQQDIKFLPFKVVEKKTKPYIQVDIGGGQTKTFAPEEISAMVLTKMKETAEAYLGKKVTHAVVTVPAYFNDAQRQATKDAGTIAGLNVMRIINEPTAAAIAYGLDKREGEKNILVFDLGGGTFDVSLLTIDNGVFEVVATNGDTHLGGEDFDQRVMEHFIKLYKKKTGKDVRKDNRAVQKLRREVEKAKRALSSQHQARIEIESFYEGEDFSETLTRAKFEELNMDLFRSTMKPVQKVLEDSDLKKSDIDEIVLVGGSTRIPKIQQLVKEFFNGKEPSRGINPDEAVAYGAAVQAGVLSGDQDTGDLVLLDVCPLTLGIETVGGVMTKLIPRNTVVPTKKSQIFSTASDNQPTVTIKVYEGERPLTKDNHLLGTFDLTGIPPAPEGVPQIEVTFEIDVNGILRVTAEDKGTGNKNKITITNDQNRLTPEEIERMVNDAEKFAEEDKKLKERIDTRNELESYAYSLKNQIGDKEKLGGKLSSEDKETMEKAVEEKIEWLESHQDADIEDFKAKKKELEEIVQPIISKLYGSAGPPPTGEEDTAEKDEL
EGFP-full length GRP78 T518A (P11021, form named): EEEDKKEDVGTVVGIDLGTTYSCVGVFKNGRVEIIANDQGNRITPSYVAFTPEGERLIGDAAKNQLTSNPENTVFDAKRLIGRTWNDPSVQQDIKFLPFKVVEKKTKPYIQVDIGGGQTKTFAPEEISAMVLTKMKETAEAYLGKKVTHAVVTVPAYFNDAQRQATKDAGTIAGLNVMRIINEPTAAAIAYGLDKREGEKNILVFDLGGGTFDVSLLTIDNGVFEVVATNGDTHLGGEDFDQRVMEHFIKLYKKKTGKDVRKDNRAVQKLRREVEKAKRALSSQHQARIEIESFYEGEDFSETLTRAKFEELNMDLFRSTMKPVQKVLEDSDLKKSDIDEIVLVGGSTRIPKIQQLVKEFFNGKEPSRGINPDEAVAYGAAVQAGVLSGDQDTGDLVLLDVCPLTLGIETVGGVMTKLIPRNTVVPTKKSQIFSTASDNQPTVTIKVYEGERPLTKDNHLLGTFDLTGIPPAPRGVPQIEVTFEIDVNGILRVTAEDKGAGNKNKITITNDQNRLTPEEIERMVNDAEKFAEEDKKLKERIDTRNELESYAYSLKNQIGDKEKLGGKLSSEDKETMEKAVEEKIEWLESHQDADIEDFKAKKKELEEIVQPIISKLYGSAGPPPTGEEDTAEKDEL
UniProt A0A142I5B9, residues 795-1146: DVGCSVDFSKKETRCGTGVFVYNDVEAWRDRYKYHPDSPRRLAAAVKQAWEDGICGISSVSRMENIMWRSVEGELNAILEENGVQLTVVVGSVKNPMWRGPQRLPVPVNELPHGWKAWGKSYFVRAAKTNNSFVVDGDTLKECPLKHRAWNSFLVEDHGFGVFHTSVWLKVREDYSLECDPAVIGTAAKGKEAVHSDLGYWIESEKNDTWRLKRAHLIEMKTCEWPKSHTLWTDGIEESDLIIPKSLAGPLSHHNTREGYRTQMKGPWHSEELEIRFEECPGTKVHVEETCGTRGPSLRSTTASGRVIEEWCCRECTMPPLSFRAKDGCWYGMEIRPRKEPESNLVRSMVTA
UniProt P18850: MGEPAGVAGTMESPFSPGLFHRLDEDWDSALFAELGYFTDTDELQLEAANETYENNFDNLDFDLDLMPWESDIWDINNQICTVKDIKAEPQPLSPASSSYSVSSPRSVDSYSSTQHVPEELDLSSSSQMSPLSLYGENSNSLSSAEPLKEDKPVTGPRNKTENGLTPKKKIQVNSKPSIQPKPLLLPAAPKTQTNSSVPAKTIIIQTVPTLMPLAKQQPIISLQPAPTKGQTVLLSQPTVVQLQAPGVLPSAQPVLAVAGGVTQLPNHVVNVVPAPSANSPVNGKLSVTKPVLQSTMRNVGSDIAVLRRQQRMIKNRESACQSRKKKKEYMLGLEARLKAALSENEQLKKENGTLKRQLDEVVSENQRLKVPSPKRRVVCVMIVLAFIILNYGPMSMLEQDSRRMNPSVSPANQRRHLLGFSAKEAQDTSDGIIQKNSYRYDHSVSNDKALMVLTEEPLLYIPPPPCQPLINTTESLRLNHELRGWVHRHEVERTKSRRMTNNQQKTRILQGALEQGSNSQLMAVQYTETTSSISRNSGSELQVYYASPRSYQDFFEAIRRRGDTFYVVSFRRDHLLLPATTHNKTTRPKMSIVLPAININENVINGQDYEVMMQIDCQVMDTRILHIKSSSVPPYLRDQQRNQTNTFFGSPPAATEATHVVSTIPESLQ

What was measured:
Assay in all cases: co-IP; EGFP-GRP78 fusion as bait co-expressed with the prey in HEK293T/17 for 48 h; lysate in 50 mM HEPES pH 7.4, 150 mM NaCl, 1 mM EGTA, 10% glycerol, 1% Triton X-100; GFP-Trap beads, 4 °C, 1 h; western blot
[1] = target: EGFP-full length GRP78 H477E (human) (UniProt P11021)
[2] = target: EGFP-full length GRP78 K621A (human) (UniProt P11021)
[3] = target: EGFP-full length GRP78 V429Q (human) (UniProt P11021)
[4] = target: EGFP-full length GRP78 K585A (human) (UniProt P11021)
[5] = target: EGFP-full length GRP78 R470E (human) (UniProt P11021)
[6] = target: EGFP-NBD (GRP78 nucleotide binding domain with the hydrophobic linker) (human) (UniProt P11021)
[7] = target: EGFP-full length GRP78 (wild type) (human) (UniProt P11021)
[8] = target: EGFP-SBD (GRP78 substrate binding domain) (human) (UniProt P11021)
[9] = target: EGFP-full length GRP78 R492E (human) (UniProt P11021)
[10] = target: EGFP-full length GRP78 T518A (human) (UniProt P11021)

Substance	binding [1]	binding [2]	binding [3]	binding [4]	binding [5]	binding [6]	binding [7]	binding [8]	binding [9]	binding [10]
ZIKV NS1 protein, full length (pcDNA3.1+_ZIKV NS1) (from UniProt A0A142I5B9 795-1146)	binds	binds	binds	binds	binds	binds weakly	binds	binds weakly	–	–
ATF6 (activating transcription factor 6), endogenous (from UniProt P18850 1-670)	binds	binds	binds	binds	binds	–	binds	–	binds	binds
